# Primary screen of a compound library

Measurements from “University of Dundee, Small-Polar-MMV Screening Library” (2021), ChEMBL document CHEMBL3988442.

Results are given as percent effect. The controls that fix the scale are not given in the record; negative values are as filed. The compounds are a random part of those screened.

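Whole-parasite assay of Trypanosoma brucei over 72 hours; the read-out is not stated. Concentration: 30 µM. Higher reads as stronger inhibition (inferred: compounds with an IC50 in retests scored well above the rest). Values scatter widely below zero; nearly all retest evidence comes from the higher of the two concentrations used. About 64,000 compounds were tested under these conditions; 1.5% (about 940) showed 50% or more at least once.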

Compound,Percent Effect
CCn1ccnc1CN1CCN(CC(O)c2ccccc2)CC1 (stereo not shown),-18.29
OC1(CNCCc2nc3c(s2)CCCC3)CNCCOC1 (stereo not shown),-39.65
CC1CCCCN1C(=O)COc1nc(C(C)(C)C)no1 (stereo not shown),-2.69
Cc1cccc(-c2nc(CN3CCn4c(nnc4C4CC4)C3)no2)c1,21.5
Clc1ccc(-n2cc(CNC3CCc4ncnn4C3)cn2)cc1 (stereo not shown),-1.948
COc1ccc2c(c1)nc1n2[C@@H](CN(C2CCC2)C2CCC2)COC1,-11.1
c1ccc2c(c1)CN(c1ncnc3c1CCNC3)CCO2,5.814
[H][C@@]12CCN(C(=O)c3ccc(S(=O)(=O)NCC(F)F)cc3)[C@]1([H])CNC2,-4.068
CN(C(=O)c1ccc(Cl)cn1)c1ccccc1S(C)(=O)=O,2.751
Cc1csc(N2CCN(C(=O)C3(C#N)CCCCC3)CC2)n1,8.119
O=C1NCCN(C(=O)CCN2CCCO2)C1c1cccc(F)c1 (stereo not shown),-45.18
CCN(CC1CN(Cc2ncc(C)o2)CCO1)c1cccnn1 (stereo not shown),-1.377
Cn1nccc1C1CCN(Cc2csc(-c3ncccn3)n2)CC1,19.73
CCNC(=O)N1CCc2ccc(NC(=O)C(C)c3ccsc3)cc21 (stereo not shown),-22.9
CC(C)(C)OC(=O)N1CCCCC1C(=O)NCc1cc[nH]n1 (stereo not shown),-20
O=C(CC1CC1)N1CCn2cc(Cn3cccn3)nc2C1.O=C(O)C(F)(F)F,-77.43
Cc1ccc(CN2CCn3c(CNC(=O)c4cccn4C)cnc3C2)s1.O=C(O)C(F)(F)F,-3.168
Cc1ccc2nc(C(=O)N(C)[C@@H]3CC[C@@H](N4CCCC4)[C@@H]3O)cn2c1,9.431
CC(=O)N1CCCN(C(=O)CN(C)c2ccc(Cl)cn2)CC1,-8.301
Cc1nc(CNCc2ccc(N3CCN(C)CC3)nc2)cs1,-2.938
Cc1nnc(C(C)NCC2(c3ccc(Cl)cc3)CCOCC2)o1 (stereo not shown),-12.99
CCNc1cc2c(nn1)CCN(C(=O)c1ccsc1)C2,9.645
CCCS(=O)(=O)N1CCC2(CCC(=O)N(CCc3ccccc3)C2)CC1,6.205
N#Cc1cc(Br)ccc1NC1CCN(CC(N)=O)CC1,-8.764
Cc1ccccc1CCCN1C(=O)CC2(CCSC2)C1=O (stereo not shown),-11.1
Cc1ccc(OCC2CCCN(C(=O)Cn3ccccc3=O)C2)cc1 (stereo not shown),-52.35
COc1ccc(F)c(CN2CCCC(O)(CNC3CCCCC3)C2=O)c1 (stereo not shown),0.6017
[H][C@@]12CS(=O)(=O)C[C@]1([H])N(Cc1cccnc1)CCN2C(=O)C1CCC1,-30.13
CCC(C)(CC(=O)OC)NCc1nc(C)no1 (stereo not shown),-45.4
Cn1nccc1C(=O)N1CCCC1c1ccc(C(=O)N2CCOCC2)s1 (stereo not shown),-209.9
[H][C@@]12CS(=O)(=O)C[C@]1([H])N(Cc1cc(Cl)cc(Cl)c1)CCN2CCO,-49.67
CCc1nc(CNC(=O)Nc2nc(COC)cs2)cs1,8.585
COc1ccc(C(=O)N2Cc3c(Cn4ccnc4)nn(C)c3C2)cc1,19.85
Cc1ncc(-c2ccccn2)c(CCNC(=O)CCC2CCCO2)n1 (stereo not shown),-11.3
CO[C@H]1COCCN(C(=O)c2ccc(F)cc2)C1,-28.12
CC(=O)N1CCCC1(C(=O)N1CCCC1)c1cnccn1 (stereo not shown),-19.98
CCSc1ccc(NC(=O)NC(C)c2c(C)nn(C)c2C)cn1 (stereo not shown),-31.06
COc1ccccc1OCc1cc(C(=O)N2CCS(=O)(=O)CC2)n[nH]1,-6.881
[H][C@@]12CCN(C(=O)COC)[C@]1([H])C(=O)N(CCC)C(=O)N2Cc1cccs1,-44.55
CCC(NC1Cc2ccccc2C1)c1ccc(S(C)(=O)=O)cc1 (stereo not shown),-6.925
CC(C)C(=O)N1CCC2(COCc3cnc(-c4cccnc4)nc32)C1 (stereo not shown),-65.17
C=C(C)COc1cccc(CN(CC)Cc2noc(C)n2)c1,-12.94
CCc1cc(=O)[nH]c(-c2ccc(NC(C)COC)nc2)n1 (stereo not shown),2.232
[H][C@@]12C[C@H](C(=O)Nc3cccnc3)[C@@]([H])(CN(Cc3ccc(F)cc3)C1)O2,-89.84
O=C(NCCCN1CCN(c2ncccn2)CC1)Nc1ccccn1,-23.04
[H][C@@]12CCN(C(=O)c3ccc[nH]3)[C@]1([H])CCC(=O)N2Cc1csc(C)n1,-18.49
CN(Cc1cccnc1)CC1(O)CCCN(CC(C)(C)C)C1=O (stereo not shown),-16.56
CN(C)C[C@H]1O[C@H](Cc2cc(-c3ccccn3)on2)CC[C@@H]1O,-4.695
CCOC(C)c1nc(CN2CCN(Cc3cccnc3)CC2)cs1 (stereo not shown),-29.25
CN(CCc1ccccn1)C(=O)C1Cc2ccccc2CN1C (stereo not shown),-2.299
COCCC(=O)N1CCCC2(CCCN2Cc2ccccc2F)C1.O=C(O)C(F)(F)F (stereo not shown),-29.39
Cc1nc(C(C)C)sc1C(=O)N1CCC(C(N)=O)CC1,-12.6
CCS(=O)(=O)N1CCOC2(CCCN(c3ccccn3)C2)C1.O=C(O)C(F)(F)F (stereo not shown),-16.53
Cc1ccccc1-n1c(O)cc(C)c(C#N)c1=O,-27.09
Cc1nc(CN2CCC(CNC(=O)NCCC3CCC3)CC2)oc1C,-41.46
COC(=O)c1cc(C)nc(N2CCN(Cc3cc(C(C)C)no3)CC2)n1,1.679
COCCN1CC(c2cc(O)nc(NC(C)C)n2)CC1=O (stereo not shown),-7.872
Cc1ccc2c(cnn2CCC(=O)NCc2csc(C3CC3)n2)c1,-15.6
Clc1cccc(C(CNCc2cccnc2)N2CCOCC2)c1 (stereo not shown),-45.98
Cn1nnc2c1C(COCc1cccnc1)CN(Cc1ccoc1)C2.O=C(O)C(F)(F)F.O=C(O)C(F)(F)F (stereo not shown),26.23
COc1ccc(N2CCN(C(=O)[C@@H]3C[C@@H](O)CN3)CC2(C)C)cc1,-59.38
O=S1(=O)CCC(S(=O)(=O)c2cccc(S(=O)(=O)N3CCOCC3)c2)C1 (stereo not shown),-4.748
N#Cc1ccc(NCc2cccc(COC3CCOCC3)c2)nc1,-33.02
O=S(=O)(Nc1ccc(Oc2ccc3c(c2)OCO3)cc1)N1CCCCC1,-21.84
CN(C(=O)c1cc(Cl)c[nH]1)C1CCN(c2ccccn2)CC1,-1.667
CCc1nc(CN2CCCN(c3cnc4ccccc4n3)CC2)no1,-16.17
CN(Cc1nnc(C2CC2)n1C)C1CCN(Cc2ccon2)C1 (stereo not shown),-25.45

For reference, 8 entries once more:

{"compound": "Cc1ccccc1CCCN1C(=O)CC2(CCSC2)C1=O", "stereo": "stereo not shown", "Percent Effect": -11.1}
{"compound": "CN(CCc1ccccn1)C(=O)C1Cc2ccccc2CN1C", "stereo": "stereo not shown", "Percent Effect": -2.299}
{"compound": "O=C1NCCN(C(=O)CCN2CCCO2)C1c1cccc(F)c1", "stereo": "stereo not shown", "Percent Effect": -45.18}
{"compound": "COc1ccc(F)c(CN2CCCC(O)(CNC3CCCCC3)C2=O)c1", "stereo": "stereo not shown", "Percent Effect": 0.6017}
{"compound": "COC(=O)c1cc(C)nc(N2CCN(Cc3cc(C(C)C)no3)CC2)n1", "Percent Effect": 1.679}
{"compound": "COc1ccc(N2CCN(C(=O)[C@@H]3C[C@@H](O)CN3)CC2(C)C)cc1", "Percent Effect": -59.38}
{"compound": "COc1ccc2c(c1)nc1n2[C@@H](CN(C2CCC2)C2CCC2)COC1", "Percent Effect": -11.1}
{"compound": "CC(=O)N1CCCC1(C(=O)N1CCCC1)c1cnccn1", "stereo": "stereo not shown", "Percent Effect": -19.98}